Assay results reported in PMC10734061.
No constants are given. Whether binding was seen depends on the method and setting. Binding seen in cells or lysates may run through a third protein. Some results given as binding are weak or reduced against the parent protein; the word gives no strength.

Amino acid sequences for entries named in this document (tags omitted).
UniProt Q99836: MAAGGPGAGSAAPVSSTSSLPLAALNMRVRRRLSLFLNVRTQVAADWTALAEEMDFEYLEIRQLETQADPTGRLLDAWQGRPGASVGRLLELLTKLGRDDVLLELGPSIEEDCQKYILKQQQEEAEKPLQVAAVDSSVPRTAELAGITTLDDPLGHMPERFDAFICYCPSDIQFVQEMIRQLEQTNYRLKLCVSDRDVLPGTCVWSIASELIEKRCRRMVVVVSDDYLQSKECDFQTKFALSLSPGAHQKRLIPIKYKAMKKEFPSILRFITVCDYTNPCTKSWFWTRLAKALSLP

Molecular target: Growth factor receptor bound protein 7 (human (endogenous in AGS)) (UniProt Q14451)
Assay: co-IP; AGS cells lysed in IP lysis buffer; antibodies added to the lysate overnight at 4 °C, then beads for 2 h; washed with IP buffer; eluted proteins analysed by Western blot

In the case of “Myeloid differentiation primary response 88 (from UniProt Q99836 1-296)”, the binding is reported as “binds”.
